For at least one compound, name, drawing or mass did not settle the structure.
Target: T1, adenosine deaminase (ADA, Type V, EC 3.5.4.4) entrapped in monolithic silica column (Bos taurus, UniProt P56658)
T1 construct: Adenosine deaminase (ADA, Type V, from bovine intestine, EC 3.5.4.4); purchased Sigma-Aldrich (Oakville, Ontario, Canada) Type V (catalogue number not given); host or cells: bovine intestine (tissue-derived)
T1 sequence (P56658 1-363): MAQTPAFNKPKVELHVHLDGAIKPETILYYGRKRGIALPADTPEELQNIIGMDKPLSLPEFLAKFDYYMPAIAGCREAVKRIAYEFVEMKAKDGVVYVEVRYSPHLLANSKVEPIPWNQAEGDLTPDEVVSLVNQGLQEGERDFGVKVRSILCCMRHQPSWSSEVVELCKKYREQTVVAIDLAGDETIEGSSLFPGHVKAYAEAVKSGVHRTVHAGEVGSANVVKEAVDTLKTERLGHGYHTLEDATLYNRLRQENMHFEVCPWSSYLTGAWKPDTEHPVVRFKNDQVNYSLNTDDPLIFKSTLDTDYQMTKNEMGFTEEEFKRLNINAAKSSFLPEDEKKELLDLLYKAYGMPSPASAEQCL
Assay: ADA enzyme reactor/MS quantitative determination of IC50, KI and Km
Type: biochemical, bovine
Details: test compounds increased stepwise from 0 to 1000 nM, adenosine constant at 62.5 μM, 2 mM ammonium acetate
Source text: In an embodiment of the invention, if the P/S ratio is altered in favour of the substrate, then at least one of the one or more test compounds is an inhibitor of the protein. By altering the ratio of the flow between substrate and test compound channels, one can alter the compound concentrations and, thereby, obtain full inhibition curves. IC50 values are obtained by altering the flow in the substrate and substrate+inhibitor(s) channel in a stepwise fashion, thus allowing for variation of inhibitor concentration with constant substrate concentration. […] KI values are determined by extrapolation of IC50 values obtained at different substrate concentrations to the point of zero substrate concentration as per the equation: [formula] […] Note that for the enzyme reactor column, product concentration, rather than reaction rate, is monitored. Thus, the equation is valid only under conditions where the initial rate is proportional to product concentration. In the present system, it is assumed that this holds for conversion rates of 30% or less.
To assess the enzyme-reactor chromatography/tandem MS method for inhibitor screening, monolithic silica columns containing entrapped adenosine deaminase (ADA, EC 3.5.4.4) and Factor Xa were formed according to previously described methods.^25 ADA was used as the model enzyme owing to the relevance of this protein in immune disorders,^19 and because there are currently no high-throughput screening methods for this enzyme. An Eksigent nanoLC system was used to continuously infuse liquid through the column (10 μL/min total flowrate), with one channel containing adenosine (Pump A) and another containing adenosine plus 1 μM test compound(s) (Pump B), with all species present in 2 mM ammonium acetate buffer (FIG. 1, bottom).
Columns were fabricated in a fashion similar to that described previously.^25 ADA was exhaustively dialyzed against a solution containing 5 mM Bis-Tris.HCl, pH 6.5, with 10% (v/v) glycerol to remove all traces of phosphate buffer and adjust the pH. 40 mL of the resultant 40 mM ADA solution was then mixed with 20 mL of a solution containing 0.5 mM Bis-Tris.HCl, pH 6.5 with 50% (v/v) glycerol. DGS based sols were prepared by sonicating DGS with water (1 g+1 mL) at 0° C. for 15 min to hydrolyze the monomer, followed by filtration through a 0.2 mm filter. 100 mL of the resulting sol was rapidly mixed with the 60 mL ADA solution prepared above, followed by the rapid addition of 40 mL of 40% (w/v) poly(ethylene glycol) in water. The sol solution was then injected into an 80 cm length of 250 mm i.d., 360 mm o.d., polyimide coated fused silica tubing that was previously cleaned using 1 M NaOH. […]

Row | Compound | effect on ADA activity (substrate and product signals, P/S ratio) | effect on ADA activity (substrate and product signals, P/S ratio) (listed as Fluorescein) | effect on ADA activity (substrate and product signals, P/S ratio) (listed as pyramethamine)
1 | O=C1OC2(c3ccc(O)cc3Oc3cc(O)ccc32)c2ccccc21 [fluorescein] | no significant effect | no effect | –
2 | CCc1nc(N)nc(N)c1-c1ccc(Cl)cc1 [pyrimethamine, Pyrimethamine] | no significant effect | – | no effect

Reference: patent publication US20060226082A1, “Methods for substrate and modulator screening using enzyme-reactor chromatography/tandem mass spectrometry” (McMaster University, priority 2005, published 2006)
